The values below come from PubChem BioAssay AID2685 (National Center for Advancing Translational Sciences (NCATS), 2010).

The list shows a part of the results. These are further read-outs of the screen, such as a control signal, another cell line or another target. No call is given for them. Compounds called inactive in the main read-out are mostly missing here. Potencies come from curve fits of mixed quality, noted in brackets.

The assay in a line: qHTS Assay for Lipid Storage Modulators in Drosophila S3 Cells.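 As to cell number change: cells counted by Cell Tracker Red CMTPX staining in the red channel.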 Conditions: BODIPY lipid droplet fluorescence, 18-24 h; for cell number change: measured here: cell count max response, cells fed with added oleic acid. An outline of the steps:
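Drosophila S3 cells loaded with oleic acid (400 uM, as added) and compounds at several concentrations; lipid droplets imaged by 488-nm laser-scanning cytometry, 500–530 nm intensity and object ratio to cell channel. Percent activity normalized to 20 uM Triacsin C.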
For orientation: qHTS replaces the single test concentration by a dilution series.

Setting [1] is: measured here: lipid fluorescence (Fed channel) AC50, cells fed with added oleic acid.
The mark [2] stands for this setting: measured here: cell number channel AC50, cells fed with added oleic acid.

As for `Cn1c(SCC(=O)N2CCCCC2)nc2cccnc21`, the cell number change is -10.7%. Further, under setting [1], the AC50 (in general, the concentration giving half of the maximal activity seen) is 8.2 µM [rising, partial curve].

With `CCOC(=O)C1(Cc2ccccc2Cl)CCN(Cc2csc(C(C)=O)c2)CC1`, the cell number change was found to be 14.9%. Besides, the AC50 under setting [1] is 3.26 µM [rising, partial curve].

For `CC(C)CNS(=O)(=O)c1ccc(CCC(=O)N2CCOCC2)cc1`, the cell number change is 15.3%. The AC50 under setting [1] was 29.1 µM [falling, single point].

Turning to `COc1ccc(CC(=O)NCC2CCCN(Cc3cccc(SC)c3)C2)cc1` (stereo not drawn), the cell number change was determined as 12.5%. Further, the AC50 under setting [1] is 20.6 µM [rising, partial curve].

Turning to `CN(C(=O)COc1cccc(Br)c1)C1CCS(=O)(=O)C1` (stereo not drawn), the cell number change is -3.49%.

Take `Cc1ccc(NC(=O)CSc2nc3ccccc3c(=O)n2CCCC(=O)N2CCCC2)cc1`: the cell number change amounted to 14.1%. Under setting [1], the AC50 was 1.84 µM [rising, partial curve, poor fit].

On to `CN(C)CCNC(=O)/C(=C/c1ccc(-c2ccc(Cl)cc2)o1)NC(=O)c1ccccc1`, for which the cell number change was -23.3%. Moreover, under setting [1], the AC50 is 0.00517 µM [falling, full curve, poor fit].

Turning to `CNS(=O)(=O)c1ccc(NC(=O)C2c3ccccc3Oc3ccccc32)cc1`, the cell number change turned out to be 0.884%.

Turning to `CCOc1ccccc1N1CCN(C(=O)Nc2ccc(F)c(Cl)c2)CC1`, the cell number change was determined as 23.2%. For the same compound, under setting [1], the AC50 was 2.31 µM [falling, partial curve].

Regarding `CCCN(CC(=O)Nc1ccccc1C)C(=O)c1nn(CC)c(=O)c2ccccc12`, the cell number change was found to be 32.6%. The AC50 under setting [2] is 18.4 µM [rising, single point]. In addition, under setting [1], the AC50 is 20.6 µM [rising, partial curve].

Consider `Cc1ccc(NC(=O)C2C3C=CC4(O3)C2C(=O)N(CCCN2CCCC(C)C2)C4C(=O)NC2CCCCC2)cc1` (stereo not drawn), for which the cell number change was found to be 12.6%. Also, under setting [1], the AC50 was 29.1 µM [falling, single point].

Regarding `Cc1cc(NC(=O)OC2CCCCC2)ccc1[N+](=O)[O-]`, the cell number change is 2.52%. Moreover, under setting [1], the AC50 is 0.206 µM [rising, single point].

On to `O=C(O)CCCNC(=O)CCCn1nnc2ccccc2c1=O`, for which the cell number change was -9.29%. For the same compound, under setting [1], the AC50 was 29.1 µM [falling, single point].

Regarding `N#C/C(=N\O)c1nc2ccccc2[nH]1`, the cell number change was found to be 20.5%. Under setting [1], the AC50 is 18.4 µM [rising, single point].

In the case of `O=C(CCl)N1N=C(c2ccco2)CC1c1cccs1` (stereo not drawn), under setting [1], the AC50 is 20.6 µM [falling, single point].

For the compound `COc1ccc(CSc2n[nH]c(C)n2)cc1Br`, the cell number change is -7.13%. The AC50 under setting [2] is 2.06 µM [falling, partial curve, poor fit]. Moreover, the AC50 under setting [1] is 0.164 µM [falling, full curve, poor fit].

Turning to `Cc1cc(-c2nc(-c3ccc(C(C)(C)C)cc3)no2)no1`, the cell number change is 7.74%. The AC50 under setting [1] was 2.06 µM [rising, single point].
